The values below come from paper PMC7819943, “Rice protein-binding microarrays: a tool to detect cis-acting elements near promoter regions in rice”.

Amino acid sequences for entries named in this document (tags omitted).
UniProt Q0JBA9, entry or part of it: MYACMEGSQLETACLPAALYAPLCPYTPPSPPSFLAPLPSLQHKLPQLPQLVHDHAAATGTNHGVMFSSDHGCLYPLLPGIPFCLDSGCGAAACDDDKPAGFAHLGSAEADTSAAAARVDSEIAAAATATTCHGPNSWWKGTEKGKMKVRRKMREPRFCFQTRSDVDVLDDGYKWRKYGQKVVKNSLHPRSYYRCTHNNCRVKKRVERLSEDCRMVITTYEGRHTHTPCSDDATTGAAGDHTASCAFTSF

The other results are listed elsewhere or left out.

This assay deals with OsWRKY34 (Oryza sativa, UniProt Q0JBA9 1-250). Put plainly: protein-binding microarray (RPBM); PBS, 2% BSA, 51.3 ng/ul salmon testes DNA, 50 uM zinc acetate, 200 nM TF, 25 C, 1 h; high values mean tight binding. To be noted: protein: recombinant; tags: N-terminal polyhistidine and DsRed monomer fusion (pET32a); label: CyDye5-dUTP incorporated in the synthesized complementary strand; 3' TTTTT single-stranded linker to array surface; dsDNA, one strand shown. The essentials: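 The binding signal is fluorescence intensity per feature, in arbitrary units, read on an Axon 4000B scanner. Polyhistidine- and DsRed-tagged transcription factors (N-terminal fusions) from E. coli BL21-CodonPlus were purified on Ni–NTA and applied at 200 nM for 1 h at 25 °C to a double-stranded, BSA-blocked custom Agilent array in buffer with 50 µM zinc acetate.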
For the sequence “ATCCTGGCCACTCGTACCCGTTATAACTTGTCGATCGCTTCGGAGTCACCTAGTGCAG”, the binding signal was 13900 fluorescence intensity (a.u.).

For the sequence “CACCATTATCAACTTCCATGTTCATCCGCGTACTGAACACCGGAGTCACCTAGTGCAG”, the binding signal is 8280 fluorescence intensity (a.u.).

“ATCCTACTTTCCTATTGCTGTCATATGTGTCACGGCTGAACGGAGTCACCTAGTGCAG”: the binding signal is 11100 fluorescence intensity (a.u.).

With “TTTTTCCAATCTCAATTCGCGCATGCACGCGGCCCAACAACGGAGTCACCTAGTGCAG”, the binding signal was 8840 fluorescence intensity (a.u.).

For “CCTTGTTCTTCGGCGATCATTTCGGCTTCTTTTTTGTGGTCGGAGTCACCTAGTGCAG”, the binding signal was 9590 fluorescence intensity (a.u.).

“AGACAAGTTCGAGTCTCTCTTGCCTCGCGCAGGCACACTCCGGAGTCACCTAGTGCAG”: the binding signal was 8440 fluorescence intensity (a.u.).

With “TCGCACGTTGCTCATTGGATACCTTTTCTGCGCACTACTACGGAGTCACCTAGTGCAG”, the binding signal was 9800 fluorescence intensity (a.u.).

In the case of “GTGACGTGGCTTGGGTTGATTTACTAGAGTAGTATTTTTTCGGAGTCACCTAGTGCAG”, the binding signal is 8480 fluorescence intensity (a.u.).

Turning to “AGATTCAACTCCTACTCTTCGATTTCAATTGCCCATTAGACGGAGTCACCTAGTGCAG”, the binding signal is 10800 fluorescence intensity (a.u.).

Regarding “TATTTGGCTGCGCCGTTACCCACCGTTACGACTAAAAATGCGGAGTCACCTAGTGCAG”, the binding signal is 8220 fluorescence intensity (a.u.).

Regarding “ATGGCTTCATCGATCATGGGTCCCTCATGTCCTTCGCTTTCGGAGTCACCTAGTGCAG”, the binding signal was 8610 fluorescence intensity (a.u.).

As for “CATCCATGGCCCCAACCTAGCTAGTGCGTGTTGTGTTCTTCGGAGTCACCTAGTGCAG”, the binding signal was 8200 fluorescence intensity (a.u.).

In the case of “GTGCCACTGTACTATTGTCGTATACTATTTCTTTCTTTTCCGGAGTCACCTAGTGCAG”, the binding signal was 10700 fluorescence intensity (a.u.).

Regarding “ACAGCTATGGCCATTTCCCTGTCTCTGTGGCCGGCCAACTCGGAGTCACCTAGTGCAG”, the binding signal is 11100 fluorescence intensity (a.u.).

As to “GTGCCTCGGCGACCATAGCGTTTTCTGATGATCCACTGATCGGAGTCACCTAGTGCAG”, the binding signal is 8670 fluorescence intensity (a.u.).

For “ACACACATACCCCATACTGCTGCTTCTCTCTGTTTGTTGGCGGAGTCACCTAGTGCAG”, the binding signal was 9760 fluorescence intensity (a.u.).

In the case of “TTTGATAGAACTGGTGTCATGTGCAATTCTCCTTTTCTCCCGGAGTCACCTAGTGCAG”, the binding signal is 12300 fluorescence intensity (a.u.).

On to “CCTCGTCGCCTCATCTCGATCTCGTCGATTCTATCCGAGCCGGAGTCACCTAGTGCAG”, for which the binding signal was 11200 fluorescence intensity (a.u.).

For the sequence “GCTCTACGGTTGCTCAGCTTTGGAGTTCCTTGACCTATCCCGGAGTCACCTAGTGCAG”, the binding signal was 8990 fluorescence intensity (a.u.).

With “TTGATTTCACCTGTAGGATTGCTAGTCACAACTTCTCCTTCGGAGTCACCTAGTGCAG”, the binding signal is 10600 fluorescence intensity (a.u.).

Consider “GGACTCCCGTGGCCTCCCGCACCGCCGCATCCCGTCCATCCGGAGTCACCTAGTGCAG”, for which the binding signal was 10700 fluorescence intensity (a.u.).

On to “CACTAGCTGACGGCCTGACACCTTGGTTCTCTTTCGTTGCCGGAGTCACCTAGTGCAG”, for which the binding signal was 8100 fluorescence intensity (a.u.).

Regarding “CTAGCTGAATCTGACACCATCGCACGCATCTTTCTGTTACCGGAGTCACCTAGTGCAG”, the binding signal was 16100 fluorescence intensity (a.u.).

On to “GCTGTTTTGTCCATCCTGTTTCTGATATGATTTTATATAGCGGAGTCACCTAGTGCAG”, for which the binding signal was 8700 fluorescence intensity (a.u.).

As to “GCCATATTTTACTTGCTGTCGCGTGTTGTGTTGTTGACACCGGAGTCACCTAGTGCAG”, the binding signal is 14300 fluorescence intensity (a.u.).

On to “GCTCATTCATTTTTGTTTCGATTTGCAGTGATCGTTTCTACGGAGTCACCTAGTGCAG”, for which the binding signal is 9900 fluorescence intensity (a.u.).

As to “GTGTTCCTCGCTCTCTTCCCTTTCCTTTTTTTCTCTCTCTCGGAGTCACCTAGTGCAG”, the binding signal was 9540 fluorescence intensity (a.u.).

For the sequence “AGCGGCGGGGTCGGTGTCGGGTGGTCGCATGGTACAATCTCGGAGTCACCTAGTGCAG”, the binding signal was 8820 fluorescence intensity (a.u.).

Regarding “GCAGTTTAACTTTGACCAAAGTCAAAATATTTTATAATTTCGGAGTCACCTAGTGCAG”, the binding signal is 8930 fluorescence intensity (a.u.).

In the case of “CCTTTTGTCAGTCTAGCCAAAGATCTAGGATCTTCAACACCGGAGTCACCTAGTGCAG”, the binding signal was 8100 fluorescence intensity (a.u.).

Take “TTCCCCTTTCGGTTGGGTGCTTTGGCTCTGTTGCTCGATTCGGAGTCACCTAGTGCAG”: the binding signal was 8820 fluorescence intensity (a.u.).

As to “TTAGCATAATGTTGCGCAGGCTTGATACTTGAGGGTTTTTCGGAGTCACCTAGTGCAG”, the binding signal is 8430 fluorescence intensity (a.u.).

“CCGCCAGCGATAGTTTTTTTTTTTGGGGTATGTTTATATACGGAGTCACCTAGTGCAG”: the binding signal was 8180 fluorescence intensity (a.u.).

Regarding “AATTCTTCCTGCCTCATAACGCACGAACGCACGTCACGAACGGAGTCACCTAGTGCAG”, the binding signal was 8270 fluorescence intensity (a.u.).

For “ATCACACACCTTCTCTGCAAAAATCCCAATCTACCACCGCCGGAGTCACCTAGTGCAG”, the binding signal is 9250 fluorescence intensity (a.u.).

On to “AAATTCGTCCAAAAACCAAGCTCACCCATGTTTCTGCCCACGGAGTCACCTAGTGCAG”, for which the binding signal was 9490 fluorescence intensity (a.u.).

Turning to “AGTGGAGTTGTTTTTATTATCGAAGTAAATCGTTTACTCGCGGAGTCACCTAGTGCAG”, the binding signal is 8140 fluorescence intensity (a.u.).

As for “CGGTGATTCGTCTTGTCGCACTTTTCCTGTCTGTAGTGGCCGGAGTCACCTAGTGCAG”, the binding signal was 10100 fluorescence intensity (a.u.).

Regarding “ACATGCACGGCTGCTCCGCCTCGCCAAGGACATCGCCGACCGGAGTCACCTAGTGCAG”, the binding signal was 8290 fluorescence intensity (a.u.).

Consider “CCAATCTAGCATTTAAATAGCCCATATTTGTCTAATTTCTCGGAGTCACCTAGTGCAG”, for which the binding signal is 8400 fluorescence intensity (a.u.).

“TTATTTGTTCCCGTTTTGCCTCTGCTGATTTTGCTGTTGCCGGAGTCACCTAGTGCAG”: the binding signal is 8960 fluorescence intensity (a.u.).

Regarding “CCACCTGTCAGTCAGTTGGAGCTTTTTATCTCTCTCTCTCCGGAGTCACCTAGTGCAG”, the binding signal is 8680 fluorescence intensity (a.u.).
